In the test the target is T1, NHR-91 (GCNF homolog), Gal4 fusion for yeast two-hybrid (C. elegans) (UniProt Q9U2R6).
T1 sequence: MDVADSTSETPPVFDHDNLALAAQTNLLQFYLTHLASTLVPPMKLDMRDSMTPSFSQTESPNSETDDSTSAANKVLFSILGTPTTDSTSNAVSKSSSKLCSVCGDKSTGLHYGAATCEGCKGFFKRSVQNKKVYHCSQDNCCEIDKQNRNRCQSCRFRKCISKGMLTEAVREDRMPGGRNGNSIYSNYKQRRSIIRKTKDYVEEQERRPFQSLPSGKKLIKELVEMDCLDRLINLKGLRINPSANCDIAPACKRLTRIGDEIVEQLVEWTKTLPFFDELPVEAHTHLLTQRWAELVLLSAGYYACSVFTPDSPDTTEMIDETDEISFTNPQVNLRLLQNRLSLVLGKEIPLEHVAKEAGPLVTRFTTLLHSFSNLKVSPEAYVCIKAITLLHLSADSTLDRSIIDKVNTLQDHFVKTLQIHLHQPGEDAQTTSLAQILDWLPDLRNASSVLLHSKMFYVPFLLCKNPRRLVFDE
Description: two-hybrid; Gal4 system in S. cerevisiae MaV103; DB fusion as bait (target in the rows), AD fusion as prey (binder in the rows); AD-Orfeome library screen and pairwise matrix tests; β-galactosidase (LacZ) and HIS3 (20 mM 3-aminotriazole) reporters.

These are yes or no findings as the source states them, for the method shown. Some binding calls cover weakened binding; strength is not graded here. Tags and fused reporters may be left off the sequences shown.

B1: NHR-25 3KR (K165R K170R K236R), Gal4 fusion for yeast two-hybrid (protein, UniProt Q19345 1-572)
chain: MTDVERMVLRPNHEGEMCPVCGDRVSGYHYGLLTCESCKGFFKRTVQNKKQYQCSAEANCHVDRTCRKRCPSCRFQKCLTMGMKMEAVRADRMRGGRNKFGSFYKKDRAHRMQRNAMRVSTVQVPAVLGAQSQAQTFYQPPEHQVSSSTTDQNNQINYFDQTKIRTEYIRTEYDAHLQSPTLSSSTNQQLSVSDFIMRPGYLVDPQDSLAVLLGSTIDDPLLRHTFPAAYQLNEVRQEPFDYSEQFIHHSLHDYPTYTSNTTNYATMMPMTTVSSTQSLVTSTSSTTTGRMTEASSTSPILPLCPAPTEKTVDHFYNSSIAEMCKTLPDDAQIARIFTSVKGTSKPEKHAFSIQVAEENLKDIVIWAKNDQLFSKLSLDDQMILLQTSWTTVHIVDITNAMVHGNLLSQYKMSNGDEVPVGLVALLGNQTFVSSWNDVVIRLRNMGFTNFDYCAFRFLALFDQSMDSFPAVSTARSRVLQSWREVRCTTAFLEIFEQIRRLAYDSLRYLWNLHSNCPTNWEQFFPEASLVLEMIRTTVNRSASSSVTAITQVPAIQLPTPQATYTAVPYMAS
Regarding B1, the binding entry is “binds”.

The values above are taken from publication PMC3861103.
